Measured values: US20170190744A1 (Vicuron Pharmaceuticals, Inc., priority 2015, published 2017)
For at least one compound, name, drawing or mass did not settle the structure.

How the values were obtained:
[1] = system: S. pneumoniae; assay: Murine lung-infection model; type: in vivo, mice; settings: 24-hour dosing
[2] = ESI mass spectroscopy of multimers in solution; type: physicochemical; settings: ESI-MS
[3] = system: Gram-positive isolates, including MRSA; settings: reported values; cited from earlier work
[4] = system: S. pneumoniae; assay: Murine thigh-infection model; type: in vivo, mice; settings: three of the five single dose levels (0.625 to 10 mg/kg)
Description: Each point represents the mean of 4 thighs. Five dose levels, ranging 16-fold were used.
Five different doses (two-fold increases) were used. Study against S. aureus utilized total dose (mg/kg/6 d) levels ranging from 30 to 480 mg/kg/6 d. […] Each point represents the mean of 4 thighs.
Each point represents the mean of four thighs.
Each point represents the mean value from 4 thighs. The static dose, and the doses associated with a 1 and 2 log kill were calculated from the parameters estimated by non-linear regression using the Hill equation.

## CN[C@H]1C(=O)N[C@@H]2Cc3ccc(cc3)Oc3cc4cc(c3O[C@@H]3O[C@H](C(=O)O)[C@@H](O)[C@H](O)[C@H]3NC(=O)CCCCCCCCC(C)C)Oc3ccc(cc3Cl)[C@@H](O)[C@@H]3NC(=O)[C@H](NC(=O)[C@@H]4NC(=O)[C@@H](NC2=O)c2cc(cc(O)c2Cl)Oc2cc1ccc2O)c1ccc(O)c(c1)-c1c(O[C@H]2O[C@H](CO)[C@@H](O)[C@H](O)[C@@H]2O)cc(O)cc1[C@@H](C(=O)NCCCN(C)C)NC3=O [Dalbavancin]
[1]
  dose-response curve in lung versus thigh model: nearly identical
[2]
  multimers in solution: presence of dalbavancin multimers
[3]
  reported MIC90 for pathogens responsible for the majority of SSTIs: 0.03 to 0.5 µg/mL
[4]
  reduction of burden of organisms in thighs: nearly four log
